Data reported in patent KR20150077749A.
No constants are given. Whether binding was seen depends on the method and setting. Some entries that bind do so weakly or less than the wild type.

How the values were obtained:
[1] = molecular target: T1, GRS expressed natively in human cells (HeLa cell lysate) (human) (UniProt P41250); assay: western blot on 50 ug HeLa cell lysate, periplasmic scFv, anti-HA-HRP detection
T1 sequence (looked up): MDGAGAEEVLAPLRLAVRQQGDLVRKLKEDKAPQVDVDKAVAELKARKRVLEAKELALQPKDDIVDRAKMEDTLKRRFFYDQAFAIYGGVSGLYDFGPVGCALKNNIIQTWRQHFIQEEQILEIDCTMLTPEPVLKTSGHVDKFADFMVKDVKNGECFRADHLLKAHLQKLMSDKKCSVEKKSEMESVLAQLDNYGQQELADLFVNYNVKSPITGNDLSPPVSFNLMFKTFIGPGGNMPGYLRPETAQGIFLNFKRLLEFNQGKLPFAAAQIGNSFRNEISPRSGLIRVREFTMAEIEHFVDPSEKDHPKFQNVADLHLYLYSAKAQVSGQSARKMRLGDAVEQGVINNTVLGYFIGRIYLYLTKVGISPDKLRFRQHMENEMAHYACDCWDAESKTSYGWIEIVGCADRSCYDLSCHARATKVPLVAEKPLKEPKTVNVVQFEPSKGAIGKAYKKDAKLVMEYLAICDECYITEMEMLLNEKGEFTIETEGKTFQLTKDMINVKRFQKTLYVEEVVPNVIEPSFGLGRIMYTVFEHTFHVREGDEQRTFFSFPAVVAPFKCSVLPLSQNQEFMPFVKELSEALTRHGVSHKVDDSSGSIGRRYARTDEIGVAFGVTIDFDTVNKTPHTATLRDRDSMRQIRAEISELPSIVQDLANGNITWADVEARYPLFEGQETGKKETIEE

[2] = molecular target: T2, GRS (Glycyl-tRNA synthetase), purified recombinant antigen (human) (UniProt P41250); assay: Luminex multiplex bead assay, GRS coupled to beads
T2 sequence (looked up): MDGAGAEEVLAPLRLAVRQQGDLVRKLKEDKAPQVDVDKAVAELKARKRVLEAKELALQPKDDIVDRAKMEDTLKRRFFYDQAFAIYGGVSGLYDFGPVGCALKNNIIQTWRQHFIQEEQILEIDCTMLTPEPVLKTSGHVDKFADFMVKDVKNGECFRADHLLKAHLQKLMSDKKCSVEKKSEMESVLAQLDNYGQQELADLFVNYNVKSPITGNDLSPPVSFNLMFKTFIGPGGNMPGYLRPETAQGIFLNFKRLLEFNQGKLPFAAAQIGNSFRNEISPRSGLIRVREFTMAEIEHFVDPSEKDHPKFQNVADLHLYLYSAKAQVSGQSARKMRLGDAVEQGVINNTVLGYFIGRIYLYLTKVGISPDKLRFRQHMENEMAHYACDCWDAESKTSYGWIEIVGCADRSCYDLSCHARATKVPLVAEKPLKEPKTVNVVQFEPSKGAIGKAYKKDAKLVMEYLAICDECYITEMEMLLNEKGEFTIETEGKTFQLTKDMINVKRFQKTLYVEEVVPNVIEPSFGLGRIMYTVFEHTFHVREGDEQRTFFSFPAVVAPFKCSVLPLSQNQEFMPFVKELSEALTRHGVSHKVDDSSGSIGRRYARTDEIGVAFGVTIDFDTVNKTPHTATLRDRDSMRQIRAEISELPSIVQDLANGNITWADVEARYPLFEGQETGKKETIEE

[3] = molecular target: T2, GRS (Glycyl-tRNA synthetase), purified recombinant antigen (human); assay: sandwich ELISA, scFv coated at 100-400 ng/well as capture antibody, rabbit polyclonal detection antibody
[4] = molecular target: T1, GRS expressed natively in human cells (HeLa cell lysate) (human); assay: western blot
[5] = molecular target: T2, GRS (Glycyl-tRNA synthetase), purified recombinant antigen (human); assay: phage display selection on GRS, western blot confirmation, sequencing
[6] = molecular target: T2, GRS (Glycyl-tRNA synthetase), purified recombinant antigen (human); assay: SPR (ProteOn XPR36), GRS amine-coupled to GLC chip, purified scFv as analyte
[7] = molecular target: T2, GRS (Glycyl-tRNA synthetase), purified recombinant antigen (human); assay: sandwich ELISA, scFv coated as capture antibody, rabbit polyclonal detection antibody

Measured: binding

B1: anti-GRS scFv, SEQ ID NO 13 (antibody i) (scFv)
scFv: EVQLLESGGGLVQPGGSLRLSCAASGFTFSDYDMSWVRQAPGKGLEWVSAISPDDGSKYYADSVKGRFTISRDNSKNTLYLQMNSLRAEDTAVYYCARTTWLFDYWGQGTLVTVSSGGGGSGGGGSGGGGSQSVLTQPPSASGTPGQRVTISCTGSSSNIGNNYVNWYQQLPGTAPKLLIYADSHRPSGVPDRFSGSKSGTSASLAISGLRSEDEADYYCGAWDSSLSGYVFGGGTKLTVL
binds: all assays above

B2: anti-GRS scFv, SEQ ID NO 27 (antibody ii) (scFv)
scFv: EVQLLESGGGLVQPGGSLRLSCAASGFTFSGYDMSWVRQAPGKGLEWVSAIYSDSGSTYYADSVKGRFTISRDNSKNTLYLQMNSLRAEDTAVYYCARNTALFDYWGQGTLVTVSSGGGGSGGGGSGGGGSQSVLTQPPSASGTPGQRVTISCSGSSSNIGSNYVTWYQQLPGTAPKLLIYANNHRPSGVPDRFSGSKSGTSASLAISGLRSEDEADYYCGAWDASLSGYVFGGGTKLTVL
not listed: [1] | [4]
binds: all other assays above

B3: anti-GRS scFv, SEQ ID NO 41 (antibody iii) (scFv)
scFv: EVQLLESGGGLVQPGGSLRLSCAASGFTFSNYDMSWVRQAPGKGLEWVSWIYSNGSSTYYADSVKGRFTISRDNSKNTLYLQMNSLRAEDTAVYYCARITCMFDYWGQGTLVTVSSGGGGSGGGGSGGGGSQSVLTQPPSASGTPGQRVTISCSGSSSNIGSNYVTWYQQLPGTAPKLLIYADSHRPSGVPDRFSGSKSGTSASLAISGLRSEDEADYYCGSWDYSLNGYVFGGGTKLTVL
not listed: [1] | [4]
binds: all other assays above
